Data as given in US11174464B2, “Method for preparing osteoblasts and osteoblast inducer” (KYOTO PREFECTURAL PUBLIC UNIVERSITY CORPORATION, priority 2014, dated 2021).
At least one compound was matched to its structure with a doubt left.

Experiments:
human Runx2 gene = assay: Real-time RT-PCR of Runx2 mRNA in cultured HDF; assay type: cell-based; conditions: induction medium, 28 days (FIG. 17)
human osteocalcin (OC) = assay: Real-time RT-PCR of osteocalcin (OC) mRNA in cultured HDF; assay type: cell-based
[1] = tested on: human alkaline phosphatase (ALP) gene; assay: Real-time RT-PCR of ALP mRNA in cultured HDF; assay type: cell-based; conditions: 10% FBS induction medium, 28 days, relative to normal human fibroblasts = 1 (FIG. 13)
Procedure: Then, total RNA was collected from the cells using ISOGEN II, and cDNA was synthesized using ReverTra Ace qPCR RT Master Mix. Real-time PCR Master Mix, TaqMan probes, specific primers, and cDNA were mixed, and real-time RT-PCR was performed using an AB7300 Real-Time PCR System to quantify the mRNA of Runx2, osteocalcin (OC), and alkaline phosphatase (ALP) genes. […] Further, RNA was harvested from human osteoblasts, and the same analysis was performed.
The culture was performed as in “2-1” above by adding the stated compounds.
Then, total RNA was collected from the cells using ISOGEN II, and cDNA was synthesized using ReverTra Ace qPCR RT Master Mix. Real-time PCR Master Mix, and a TaqMan probe and primers specific to a human alkaline phosphatase (ALP) gene were added, and real-time RT-PCR was performed using an AB7300 Real-Time PCR System. Furthermore, total RNA was extracted from osteoblasts from normal human bone, and analysis was performed in a similar manner.
Furthermore, total RNA was extracted from osteoblasts from normal human bone, and analysis was performed in a similar manner.
Twenty-eight days after the culture, the mRNA expression of ALP gene in the cells in each well was analyzed by real-time RT-PCR, as in “2-3” above. Furthermore, total RNA was extracted from osteoblasts from normal human bone, and analysis was performed in a similar manner.

[2] = tested on: normal human dermal fibroblast (HDF) strain; assay: Alizarin Red S staining of calcified bone matrix in fibroblasts cultured in induction medium; conditions: for Alizarin Red S staining intensity (OD 550-650 nm), ability to produce calcified matrix: induction medium with 10% FBS, 28 days (FIG. 10)
[3] = tested on: normal human dermal fibroblast (HDF) strain; assay: DNA microarray, genome-wide mRNA expression pattern; assay type: cell-based; conditions: 100 nM simvastatin or 100 nM simvastatin and 2 μM D4476, 21 days (FIG. 9, FIG. 20)
human osterix gene = assay: Real-time RT-PCR of osterix mRNA in cultured HDF; assay type: cell-based; conditions: 10% FBS induction medium, 28 days (FIG. 18)

CC[C@H](C)C(=O)O[C@H]1C[C@H](O)C=C2C=C[C@H](C)[C@H](CC[C@@H](O)C[C@@H](O)CC(=O)O)[C@H]21 [PrS, pravastatin]
Runx2 mRNA expression by real-time RT-PCR (human Runx2 gene): induced the mRNA expression of Runx2 gene
osteocalcin (OC) mRNA expression by real-time RT-PCR (human osteocalcin (OC); 5% human serum induction medium, 28 days (FIG. 16)): induced the mRNA expression of osteocalcin
ALP mRNA expression by real-time RT-PCR [1]: induced the mRNA expression of ALP gene
Alizarin Red S staining intensity (OD 550-650 nm), ability to produce calcified matrix [2]: induced the ability to produce calcified matrix

CCC(C)(C)C(=O)O[C@H]1C[C@@H](C)C=C2C=C[C@H](C)[C@H](CC[C@@H]3C[C@@H](O)CC(=O)O3)[C@H]21 [simvastatin]
osteocalcin (OC) mRNA expression by real-time RT-PCR (human osteocalcin (OC); 100 nM simvastatin, with or without 2 to 5 μM D4476, 21 days, relative to control = 1 (FIG. 8)): express
global gene expression pattern (DNA microarray) compared with fibroblasts and osteoblasts [3]: global gene expression patterns similar to that of osteoblasts

C=C[C@@]1(C)CC(=O)[C@]2(O)[C@@]3(C)[C@@H](O)CCC(C)(C)[C@@H]3[C@H](O)[C@H](OC(C)=O)[C@@]2(C)O1 [FSK, forskolin]
Runx2 mRNA expression by real-time RT-PCR (human Runx2 gene): induced the mRNA expression of Runx2 gene
osterix mRNA expression by real-time RT-PCR (human osterix gene): induced the mRNA expression of osterix gene
Alizarin Red S staining images and intensity (OD 550-650 nm), ability to produce calcified matrix ([2]; 28 days (FIG. 19)): induced the ability to produce calcified matrix
Alizarin Red S staining intensity (OD 550-650 nm), ability to produce calcified matrix [2]: induced the ability to produce calcified matrix
